Values of other authors, collected in patent publication US20040146882A1, “Human acid sensing ion channel 2b (hASIC2b), process for producing the same, and its use” (priority 2002, published 2004).
At least one structure is not confirmed: it was looked up by name or label, or the drawing left a doubt.

Biological target: T1, ASIC1 (Rattus norvegicus, UniProt P55926)
T1 sequence (P55926 1-526): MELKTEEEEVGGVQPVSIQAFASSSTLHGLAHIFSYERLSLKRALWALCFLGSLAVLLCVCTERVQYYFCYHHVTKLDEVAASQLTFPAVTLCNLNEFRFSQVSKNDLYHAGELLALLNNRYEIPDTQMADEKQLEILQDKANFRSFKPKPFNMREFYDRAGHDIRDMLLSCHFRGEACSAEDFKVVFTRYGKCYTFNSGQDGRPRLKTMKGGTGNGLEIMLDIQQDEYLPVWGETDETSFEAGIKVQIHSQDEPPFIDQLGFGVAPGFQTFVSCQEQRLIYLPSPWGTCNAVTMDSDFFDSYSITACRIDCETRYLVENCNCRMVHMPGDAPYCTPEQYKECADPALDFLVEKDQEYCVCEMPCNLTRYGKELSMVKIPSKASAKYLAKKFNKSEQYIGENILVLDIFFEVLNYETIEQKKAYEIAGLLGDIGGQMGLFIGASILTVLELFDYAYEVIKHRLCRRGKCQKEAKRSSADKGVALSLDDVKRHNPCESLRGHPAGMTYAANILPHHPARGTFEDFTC
Settings: cited from earlier work

## NC(=NCc1ccccc1)NC(=O)c1nc(Cl)c(N)nc1N [benzamil]
  block of ASIC1: blocked
